Key:
[1] = target: streptavidin (UniProt P22629); assay: EMSA (native 2% agarose); conditions: 100 and 200 nM streptavidin, 1x TBE + 2 mM MgCl2; Streptavidin EMSA: native 2% agarose gel in 1x TBE + 2 mM MgCl2; other binding conditions; commercial protein
[2] = target: streptavidin coated on 20 µm polystyrene microbeads (UniProt P22629); assay: bead binding (fluorescence imaging after washing); conditions: Spinach fluorescence read-out; commercial protein; protein details: immobilised on beads

By UniProt entry, the sequences of proteins in these tests, tags left out. Where a name states a change or a piece, a line headed by the entry shows the natural chain unless it says otherwise.
UniProt P22629: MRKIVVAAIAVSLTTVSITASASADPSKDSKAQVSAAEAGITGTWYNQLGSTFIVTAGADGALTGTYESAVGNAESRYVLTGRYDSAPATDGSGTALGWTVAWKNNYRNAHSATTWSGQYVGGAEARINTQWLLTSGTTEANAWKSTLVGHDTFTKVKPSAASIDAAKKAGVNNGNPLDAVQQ

Sequence: GGGAGAUACCUGGGAAUGUGCUCUUCGGAGCAUAUUCGGCCUGCUUCGGCAGGCGCUCGCUUCGGCGAGCGCAGGGUGAAGCCUCCACGCCCUGCCCGGCAGCCUCGACGCGACCGAAAUGGUGAAGGACGGGUCCAGUGCUUCGGCACUGUUGAGUAGAGUGUGAGCUCCGUAACUGGUCGCGUCGAGGAACUACUGUCGCCAGGUGUCUCCCGCAGGGUGCGCCGGCAGAUGCGGCCGCCGACCAGAAUCAUGCAAGUGCGUAAGAUAGUCGCGGGUCGGCGGCCGCAUAACUACUGUCGGACCUGAAGGAGGCACGGGUCGACGGUACCCUUCGGGGUAUCGUCGCGGAGCUUCGGCUCCGGACCGCUUCGGCGGUCCGCACUCUGC
- binding result [1]: binds
- binding result [2]: binds

From paper PMC6523889
